According to doi:10.1101/2025.04.16.649213:
These are yes or no findings as the source states them, for the method shown. In cells and extracts the contact can be indirect. Some binding calls cover weakened binding; strength is not graded here.

Protein sequences, listed by entry. Tags and fused reporters are not part of them. Lines headed by an entry give the natural chain unless they say otherwise; changes in a name come on top.
UniProt P11229, whole entry, looked up, stated change not applied: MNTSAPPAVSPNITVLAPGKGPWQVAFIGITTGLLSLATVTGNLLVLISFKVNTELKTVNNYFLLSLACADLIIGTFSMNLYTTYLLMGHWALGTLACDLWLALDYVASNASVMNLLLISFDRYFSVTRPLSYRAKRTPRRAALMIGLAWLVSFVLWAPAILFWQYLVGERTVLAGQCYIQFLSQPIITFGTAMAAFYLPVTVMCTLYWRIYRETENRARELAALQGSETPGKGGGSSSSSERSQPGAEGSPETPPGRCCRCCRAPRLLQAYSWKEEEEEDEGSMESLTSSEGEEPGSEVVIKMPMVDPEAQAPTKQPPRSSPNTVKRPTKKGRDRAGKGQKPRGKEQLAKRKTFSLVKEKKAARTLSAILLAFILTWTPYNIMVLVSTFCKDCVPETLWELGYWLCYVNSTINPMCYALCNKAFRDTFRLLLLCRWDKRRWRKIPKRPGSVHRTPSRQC

Columns and labels:
[1] = biological target: M1R-S251A, T254A (NLuc-M1R with Ser251 and Thr254 substitution with alanine at ICL3 loop) (human) (UniProt P11229); test: FRET or BRET
[2] = biological target: M1RΔICL3 (NLuc-M1R with Thr230, Ser251, Thr254, Ser321, Thr354 and Ser356 deletion at ICL3 loop) (human) (UniProt P11229); test: FRET or BRET

binding [1]: binds | binding [2]: binds
Substance: HaloTag-β-arrestin2 (from UniProt P32121 1-409)
